The results in this text go back to the supplement of paper PMC10849652.

Protein sequences, listed by entry. Tags and fused reporters are not part of them. Lines headed by an entry give the natural chain unless they say otherwise; changes in a name come on top.
UniProt Q15800: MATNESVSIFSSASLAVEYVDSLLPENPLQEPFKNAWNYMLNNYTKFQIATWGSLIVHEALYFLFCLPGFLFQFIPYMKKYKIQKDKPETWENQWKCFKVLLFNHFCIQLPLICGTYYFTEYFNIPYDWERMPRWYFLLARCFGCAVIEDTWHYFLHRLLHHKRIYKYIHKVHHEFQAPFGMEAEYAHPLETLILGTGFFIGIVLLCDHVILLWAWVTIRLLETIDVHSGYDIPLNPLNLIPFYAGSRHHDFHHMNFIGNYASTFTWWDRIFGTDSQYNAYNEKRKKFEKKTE
UniProt Q96E11: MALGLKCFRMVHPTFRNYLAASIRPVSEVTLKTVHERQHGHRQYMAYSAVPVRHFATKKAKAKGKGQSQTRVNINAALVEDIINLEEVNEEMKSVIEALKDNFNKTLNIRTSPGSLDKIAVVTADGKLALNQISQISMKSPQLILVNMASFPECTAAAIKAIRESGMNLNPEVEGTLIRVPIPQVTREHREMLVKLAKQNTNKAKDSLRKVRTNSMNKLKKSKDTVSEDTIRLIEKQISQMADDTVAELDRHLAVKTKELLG
UniProt Q13330: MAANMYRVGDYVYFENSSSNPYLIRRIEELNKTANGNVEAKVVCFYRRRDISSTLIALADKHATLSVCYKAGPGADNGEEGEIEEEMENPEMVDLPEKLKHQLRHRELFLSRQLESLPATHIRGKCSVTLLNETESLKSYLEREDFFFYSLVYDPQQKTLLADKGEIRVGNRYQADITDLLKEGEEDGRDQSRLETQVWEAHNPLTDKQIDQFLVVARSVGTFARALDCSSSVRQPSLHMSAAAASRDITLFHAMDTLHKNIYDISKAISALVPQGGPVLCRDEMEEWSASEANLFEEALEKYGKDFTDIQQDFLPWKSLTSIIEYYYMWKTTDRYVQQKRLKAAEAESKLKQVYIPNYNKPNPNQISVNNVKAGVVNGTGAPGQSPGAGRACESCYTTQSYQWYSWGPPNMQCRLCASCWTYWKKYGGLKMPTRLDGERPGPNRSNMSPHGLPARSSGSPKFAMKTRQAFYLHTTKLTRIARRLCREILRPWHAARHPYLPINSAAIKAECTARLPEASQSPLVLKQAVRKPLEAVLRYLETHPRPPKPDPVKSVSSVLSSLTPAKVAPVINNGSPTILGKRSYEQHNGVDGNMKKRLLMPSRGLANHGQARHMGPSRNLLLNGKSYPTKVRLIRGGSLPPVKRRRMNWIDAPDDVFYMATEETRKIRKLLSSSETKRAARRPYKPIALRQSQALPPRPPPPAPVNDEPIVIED
UniProt Q15390: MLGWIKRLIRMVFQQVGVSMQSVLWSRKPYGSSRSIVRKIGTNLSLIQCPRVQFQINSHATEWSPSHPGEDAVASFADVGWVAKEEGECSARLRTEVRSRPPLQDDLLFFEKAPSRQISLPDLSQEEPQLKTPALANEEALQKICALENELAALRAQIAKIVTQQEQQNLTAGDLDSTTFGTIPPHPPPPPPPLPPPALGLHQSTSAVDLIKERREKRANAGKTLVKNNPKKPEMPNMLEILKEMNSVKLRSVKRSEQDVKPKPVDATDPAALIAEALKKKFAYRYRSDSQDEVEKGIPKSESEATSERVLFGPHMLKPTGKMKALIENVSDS
UniProt Q9UBK8: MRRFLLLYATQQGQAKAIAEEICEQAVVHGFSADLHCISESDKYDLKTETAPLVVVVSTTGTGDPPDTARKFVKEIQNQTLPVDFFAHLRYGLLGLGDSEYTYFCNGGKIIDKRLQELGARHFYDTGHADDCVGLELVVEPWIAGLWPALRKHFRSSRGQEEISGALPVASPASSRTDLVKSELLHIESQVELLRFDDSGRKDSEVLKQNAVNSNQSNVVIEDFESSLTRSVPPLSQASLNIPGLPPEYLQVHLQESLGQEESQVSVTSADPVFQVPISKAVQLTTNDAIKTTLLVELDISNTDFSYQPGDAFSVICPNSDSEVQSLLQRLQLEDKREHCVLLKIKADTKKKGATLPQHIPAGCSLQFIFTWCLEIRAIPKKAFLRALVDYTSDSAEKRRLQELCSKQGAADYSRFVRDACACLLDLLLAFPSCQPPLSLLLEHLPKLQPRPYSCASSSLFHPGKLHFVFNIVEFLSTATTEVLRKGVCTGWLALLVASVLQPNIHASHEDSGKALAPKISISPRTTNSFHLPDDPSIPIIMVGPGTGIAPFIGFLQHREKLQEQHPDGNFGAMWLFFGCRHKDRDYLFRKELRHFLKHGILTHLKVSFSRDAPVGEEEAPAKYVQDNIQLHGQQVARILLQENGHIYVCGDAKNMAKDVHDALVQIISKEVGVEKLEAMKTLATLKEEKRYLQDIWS
UniProt Q9P0P8: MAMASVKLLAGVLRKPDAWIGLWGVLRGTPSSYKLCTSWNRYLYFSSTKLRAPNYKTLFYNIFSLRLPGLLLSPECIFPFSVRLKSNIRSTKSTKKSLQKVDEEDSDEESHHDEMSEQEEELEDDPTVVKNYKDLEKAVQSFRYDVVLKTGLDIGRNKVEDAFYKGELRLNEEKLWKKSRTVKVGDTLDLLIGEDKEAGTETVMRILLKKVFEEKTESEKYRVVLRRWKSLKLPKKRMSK
MTHFD1, A0A384N5Y3, UniProt A0A384N5Y3, whole entry, looked up: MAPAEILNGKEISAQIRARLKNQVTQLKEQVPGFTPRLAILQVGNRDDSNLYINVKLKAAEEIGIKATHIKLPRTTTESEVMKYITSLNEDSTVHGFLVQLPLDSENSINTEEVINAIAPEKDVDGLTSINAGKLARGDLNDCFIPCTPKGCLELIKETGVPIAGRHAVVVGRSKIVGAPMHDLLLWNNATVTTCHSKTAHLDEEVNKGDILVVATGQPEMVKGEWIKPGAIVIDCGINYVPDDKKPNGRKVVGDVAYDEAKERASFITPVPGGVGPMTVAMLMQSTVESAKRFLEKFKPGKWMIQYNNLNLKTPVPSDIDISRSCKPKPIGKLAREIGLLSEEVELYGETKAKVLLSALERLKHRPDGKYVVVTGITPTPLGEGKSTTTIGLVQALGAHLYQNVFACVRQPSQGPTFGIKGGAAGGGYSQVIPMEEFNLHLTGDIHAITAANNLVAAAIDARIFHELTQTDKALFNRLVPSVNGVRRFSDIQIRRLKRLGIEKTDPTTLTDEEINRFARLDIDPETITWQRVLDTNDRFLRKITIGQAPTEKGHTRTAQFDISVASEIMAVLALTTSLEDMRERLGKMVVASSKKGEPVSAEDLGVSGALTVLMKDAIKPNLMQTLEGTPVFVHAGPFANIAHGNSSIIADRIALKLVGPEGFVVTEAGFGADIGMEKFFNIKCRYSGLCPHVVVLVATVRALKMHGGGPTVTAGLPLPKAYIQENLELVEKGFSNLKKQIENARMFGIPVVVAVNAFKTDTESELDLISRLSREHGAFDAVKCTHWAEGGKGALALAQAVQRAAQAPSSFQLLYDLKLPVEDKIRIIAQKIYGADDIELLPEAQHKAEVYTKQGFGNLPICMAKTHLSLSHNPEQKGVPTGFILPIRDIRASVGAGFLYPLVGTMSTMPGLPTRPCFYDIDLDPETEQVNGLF
UniProt P03905, whole entry, looked up: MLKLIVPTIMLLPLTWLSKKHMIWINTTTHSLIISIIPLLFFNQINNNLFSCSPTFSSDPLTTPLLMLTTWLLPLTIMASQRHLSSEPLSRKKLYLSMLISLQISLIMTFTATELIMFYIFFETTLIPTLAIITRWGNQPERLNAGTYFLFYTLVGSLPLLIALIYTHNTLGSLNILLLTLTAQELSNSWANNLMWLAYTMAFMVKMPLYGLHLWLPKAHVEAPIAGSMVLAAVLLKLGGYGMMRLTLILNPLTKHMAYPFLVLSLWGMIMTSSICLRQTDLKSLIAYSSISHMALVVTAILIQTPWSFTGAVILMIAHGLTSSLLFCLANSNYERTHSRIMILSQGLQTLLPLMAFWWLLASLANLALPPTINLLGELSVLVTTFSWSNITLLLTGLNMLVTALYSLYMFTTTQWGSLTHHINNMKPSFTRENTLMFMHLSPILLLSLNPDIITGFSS
UniProt Q9Y6C9: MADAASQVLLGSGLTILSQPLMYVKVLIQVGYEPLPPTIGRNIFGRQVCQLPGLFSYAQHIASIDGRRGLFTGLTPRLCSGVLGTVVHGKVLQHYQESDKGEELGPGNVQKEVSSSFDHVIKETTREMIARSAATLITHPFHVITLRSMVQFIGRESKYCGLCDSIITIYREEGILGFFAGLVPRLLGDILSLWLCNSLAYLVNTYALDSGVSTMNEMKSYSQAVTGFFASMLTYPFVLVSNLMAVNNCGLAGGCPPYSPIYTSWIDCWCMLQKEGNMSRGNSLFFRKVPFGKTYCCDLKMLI
UniProt Q13496: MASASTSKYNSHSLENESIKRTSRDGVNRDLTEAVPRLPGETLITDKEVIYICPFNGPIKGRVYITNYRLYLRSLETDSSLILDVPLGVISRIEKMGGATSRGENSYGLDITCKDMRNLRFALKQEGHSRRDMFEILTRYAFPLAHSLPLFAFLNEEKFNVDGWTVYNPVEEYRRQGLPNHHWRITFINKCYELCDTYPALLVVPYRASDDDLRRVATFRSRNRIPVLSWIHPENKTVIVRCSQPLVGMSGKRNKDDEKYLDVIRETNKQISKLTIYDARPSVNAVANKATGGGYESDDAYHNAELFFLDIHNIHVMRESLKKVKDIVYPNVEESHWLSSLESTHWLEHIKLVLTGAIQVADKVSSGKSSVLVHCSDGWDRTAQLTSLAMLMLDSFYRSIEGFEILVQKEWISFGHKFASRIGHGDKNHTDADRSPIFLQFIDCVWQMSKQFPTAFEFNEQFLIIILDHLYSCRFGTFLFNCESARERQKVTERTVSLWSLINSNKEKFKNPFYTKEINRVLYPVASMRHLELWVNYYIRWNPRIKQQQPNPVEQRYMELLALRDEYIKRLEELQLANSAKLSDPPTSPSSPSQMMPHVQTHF
UniProt P03928: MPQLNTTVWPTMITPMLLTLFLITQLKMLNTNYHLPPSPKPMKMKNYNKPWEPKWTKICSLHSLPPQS
UniProt Q2M296: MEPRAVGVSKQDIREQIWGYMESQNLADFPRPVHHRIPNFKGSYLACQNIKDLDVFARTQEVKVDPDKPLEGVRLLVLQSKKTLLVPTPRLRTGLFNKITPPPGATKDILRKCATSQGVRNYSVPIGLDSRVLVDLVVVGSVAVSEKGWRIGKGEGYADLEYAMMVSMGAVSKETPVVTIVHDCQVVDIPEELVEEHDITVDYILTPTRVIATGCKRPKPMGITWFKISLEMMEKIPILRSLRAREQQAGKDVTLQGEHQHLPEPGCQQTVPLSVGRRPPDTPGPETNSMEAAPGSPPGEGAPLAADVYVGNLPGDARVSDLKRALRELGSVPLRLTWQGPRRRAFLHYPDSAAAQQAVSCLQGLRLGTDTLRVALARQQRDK
UniProt Q9UGC7: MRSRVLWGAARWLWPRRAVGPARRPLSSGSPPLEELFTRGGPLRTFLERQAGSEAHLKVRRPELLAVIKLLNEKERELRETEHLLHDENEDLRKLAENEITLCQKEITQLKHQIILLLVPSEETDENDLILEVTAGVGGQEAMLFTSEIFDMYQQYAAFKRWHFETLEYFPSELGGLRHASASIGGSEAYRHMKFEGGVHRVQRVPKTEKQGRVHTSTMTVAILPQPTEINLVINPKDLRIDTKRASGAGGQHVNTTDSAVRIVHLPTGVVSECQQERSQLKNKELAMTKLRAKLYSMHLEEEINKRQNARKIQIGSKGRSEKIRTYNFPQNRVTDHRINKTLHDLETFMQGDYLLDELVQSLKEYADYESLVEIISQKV
UniProt Q9Y3D2: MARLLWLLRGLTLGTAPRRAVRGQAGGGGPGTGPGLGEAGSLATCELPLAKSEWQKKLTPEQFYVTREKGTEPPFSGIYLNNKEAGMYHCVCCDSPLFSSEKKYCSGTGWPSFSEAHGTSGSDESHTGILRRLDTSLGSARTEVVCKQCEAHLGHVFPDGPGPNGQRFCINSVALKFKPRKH
UniProt O94776: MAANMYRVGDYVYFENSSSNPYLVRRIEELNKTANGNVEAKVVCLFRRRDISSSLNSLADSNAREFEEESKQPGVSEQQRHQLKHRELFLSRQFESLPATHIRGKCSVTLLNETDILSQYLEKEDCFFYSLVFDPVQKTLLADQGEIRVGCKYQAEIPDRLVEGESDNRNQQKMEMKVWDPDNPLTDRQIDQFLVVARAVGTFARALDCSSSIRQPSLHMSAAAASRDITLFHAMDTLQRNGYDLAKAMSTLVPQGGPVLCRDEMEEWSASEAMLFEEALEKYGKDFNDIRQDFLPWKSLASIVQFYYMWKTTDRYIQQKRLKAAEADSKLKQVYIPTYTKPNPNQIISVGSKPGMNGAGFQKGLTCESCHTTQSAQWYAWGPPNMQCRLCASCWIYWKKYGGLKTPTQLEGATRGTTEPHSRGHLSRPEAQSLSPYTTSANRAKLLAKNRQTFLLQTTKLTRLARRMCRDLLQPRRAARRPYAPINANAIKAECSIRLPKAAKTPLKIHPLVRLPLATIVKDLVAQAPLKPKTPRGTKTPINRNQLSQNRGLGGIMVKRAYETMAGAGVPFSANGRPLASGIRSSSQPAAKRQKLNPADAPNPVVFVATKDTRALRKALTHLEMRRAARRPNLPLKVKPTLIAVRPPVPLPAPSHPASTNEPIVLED
UniProt P13640: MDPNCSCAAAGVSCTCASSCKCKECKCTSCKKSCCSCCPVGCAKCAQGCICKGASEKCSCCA

This is one part of the list.

Compound in the first assay: CCCS(=O)(=O)Nc1ccc(F)c(C(=O)c2c[nH]c3ncc(Cl)cc23)c1F
Nature of the assay: log2 fold change, soluble protein after heating vs DMSO (PISA); higher = thermal stabilisation; K562 lysate, 10 uM; active = over 0.2 and 3.5 SD of the protein, either way, in both replicates (recomputed). The gist of the method: (§1)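 Values give the log-two fold change in thermal stability against solvent controls, from duplicates. Crude K562 extract at 1 mg/mL protein, made by dounce homogenisation in PBS pH 7.4 with 1 mM MgCl2, was treated with 10 μM compound for 30 min. After 3 min heating across 48°C-58°C, aliquots were pooled, adjusted to 0.5% NP-40 at 4°C and centrifuged at 21,000xg for 90 min. The supernatant was measured by TMTpro 16plex LC-MS/MS with channel sums equalised.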
With MTCL1 (UniProt Q9Y4B5), the log2 fold change was inactive: -0.035.

Turning to MRPS23 (UniProt Q9Y3D9), the log2 fold change is inactive: 0.018.

In the case of MTMR1 (UniProt Q13613), the log2 fold change is inactive: 0.065.

Regarding MSMO1 (UniProt Q15800), the log2 fold change was inactive: 0.

Consider MSI2 (UniProt Q96DH6), for which the log2 fold change is inactive: -0.007.

Consider MRPS11 (UniProt P82912), for which the log2 fold change is inactive: 0.05.

MTOR (UniProt P42345): the log2 fold change is inactive: 0.015.

On to MRPL37 (UniProt Q9BZE1), for which the log2 fold change was inactive: 0.016.

Take MRPL38 (UniProt Q96DV4): the log2 fold change is inactive: -0.032.

Regarding MRPS27 isoform 2 (UniProt Q92552), the log2 fold change is inactive: 0.022.

Take MRRF (UniProt Q96E11): the log2 fold change was inactive: 0.012.

In the case of MRPS6 (UniProt P82932), the log2 fold change is inactive: -0.013.

As for MRPL43 isoform 4 (UniProt Q8N983), the log2 fold change was inactive: -0.014.

For the target MTA1 (UniProt Q13330), the log2 fold change was inactive: 0.011.

Consider MTFR1 (UniProt Q15390), for which the log2 fold change is inactive: 0.05.

As to MRPS16 (UniProt Q9Y3D3), the log2 fold change was inactive: 0.062.

Take MTRR isoform 1 (UniProt Q9UBK8): the log2 fold change was inactive: 0.067.

Regarding MTRES1 (UniProt Q9P0P8), the log2 fold change is inactive: 0.018.

Consider MTHFD1, A0A384N5Y3, for which the log2 fold change is inactive: 0.011.

Turning to MT-ND4 (UniProt P03905), the log2 fold change is inactive: -0.03.

In the case of MTCH2 (UniProt Q9Y6C9), the log2 fold change is inactive: 0.008.

On to MRPS7 (UniProt Q9Y2R9), for which the log2 fold change was inactive: 0.01.

Consider MTM1 (UniProt Q13496), for which the log2 fold change was inactive: 0.012.

For the target MT-ATP8 (UniProt P03928), the log2 fold change was inactive: -0.036.

For the target MRPL55 isoform 2 (UniProt Q7Z7F7), the log2 fold change was inactive: 0.133.

Take MT-CO1 (UniProt P00395): the log2 fold change is inactive: 0.037.

Consider MRPS21 (UniProt P82921), for which the log2 fold change was inactive: 0.103.

With MRPL50 (UniProt Q8N5N7), the log2 fold change was inactive: -0.019.

Turning to MTHFSD isoform 3 (UniProt Q2M296), the log2 fold change is inactive: 0.112.

Turning to MTRF1L (UniProt Q9UGC7), the log2 fold change is inactive: 0.034.

MSRB2 (UniProt Q9Y3D2): the log2 fold change was inactive: -0.06.

In the case of MRPS14 (UniProt O60783), the log2 fold change was inactive: 0.012.

Take MRPL9 (UniProt Q9BYD2): the log2 fold change is inactive: -0.025.

As to MRPL35 (UniProt Q9NZE8), the log2 fold change is inactive: -0.001.

For MRPS26 (UniProt Q9BYN8), the log2 fold change is inactive: 0.058.

In the case of MRPS9 (UniProt P82933), the log2 fold change is inactive: -0.006.

On to MTA2 (UniProt O94776), for which the log2 fold change is inactive: 0.018.

In the case of MT1G (UniProt P13640), the log2 fold change is inactive: 0.023.

For MSH6 (UniProt P52701), the log2 fold change is inactive: 0.028.

Compound in a further assay: CCN(CCCOc1ccc2c(Nc3cc(CC(=O)Nc4cccc(F)c4)[nH]n3)ncnc2c1)CCOP(=O)(O)O [barasertib]
Described as above. The gist of the method:
as §1
On to MTCL1 (UniProt Q9Y4B5), for which the log2 fold change was inactive: 0.089.

For MRPS23 (UniProt Q9Y3D9), the log2 fold change is inactive: 0.086.

With MTMR1 (UniProt Q13613), the log2 fold change was inactive: 0.013.

On to MSMO1 (UniProt Q15800), for which the log2 fold change was inactive: -0.079.

As to MSI2 (UniProt Q96DH6), the log2 fold change was inactive: 0.009.

For MRPS11 (UniProt P82912), the log2 fold change is inactive: 0.043.

Consider MTOR (UniProt P42345), for which the log2 fold change is inactive: 0.052.

For the target MRPL37 (UniProt Q9BZE1), the log2 fold change is inactive: 0.

For the target MRPL38 (UniProt Q96DV4), the log2 fold change was inactive: -0.015.

In the case of MRPS27 isoform 2 (UniProt Q92552), the log2 fold change is inactive: -0.003.

As for MRRF (UniProt Q96E11), the log2 fold change was inactive: -0.019.

With MRPS6 (UniProt P82932), the log2 fold change was inactive: -0.013.

For MRPL43 isoform 4 (UniProt Q8N983), the log2 fold change was inactive: -0.04.

Regarding MTA1 (UniProt Q13330), the log2 fold change was inactive: 0.008.

Take MTFR1 (UniProt Q15390): the log2 fold change is inactive: -0.01.

With MRPS16 (UniProt Q9Y3D3), the log2 fold change was inactive: -0.052.

With MTRR isoform 1 (UniProt Q9UBK8), the log2 fold change is inactive: 0.015.

Consider MTRES1 (UniProt Q9P0P8), for which the log2 fold change is inactive: -0.038.

MTHFD1, A0A384N5Y3: the log2 fold change was inactive: 0.017.

With MT-ND4 (UniProt P03905), the log2 fold change was inactive: 0.042.

On to MTCH2 (UniProt Q9Y6C9), for which the log2 fold change was inactive: -0.02.

On to MRPS7 (UniProt Q9Y2R9), for which the log2 fold change is inactive: -0.009.

With MTM1 (UniProt Q13496), the log2 fold change was inactive: 0.027.

With MT-ATP8 (UniProt P03928), the log2 fold change is inactive: 0.057.

In the case of MRPL55 isoform 2 (UniProt Q7Z7F7), the log2 fold change is inactive: -0.019.

MT-CO1 (UniProt P00395): the log2 fold change was inactive: 0.032.

For MRPS21 (UniProt P82921), the log2 fold change was inactive: -0.032.

Turning to MRPL50 (UniProt Q8N5N7), the log2 fold change was inactive: 0.072.

For the target MTHFSD isoform 3 (UniProt Q2M296), the log2 fold change is inactive: 0.04.

Regarding MTRF1L (UniProt Q9UGC7), the log2 fold change was inactive: -0.046.

As for MSRB2 (UniProt Q9Y3D2), the log2 fold change is inactive: -0.037.

For the target MRPS14 (UniProt O60783), the log2 fold change is inactive: -0.088.

As for MRPL9 (UniProt Q9BYD2), the log2 fold change was inactive: 0.063.

For the target MRPL35 (UniProt Q9NZE8), the log2 fold change is inactive: 0.021.

Take MRPS26 (UniProt Q9BYN8): the log2 fold change is inactive: -0.021.

As to MRPS9 (UniProt P82933), the log2 fold change was inactive: 0.044.

Take MTA2 (UniProt O94776): the log2 fold change is inactive: 0.026.

For the target MT1G (UniProt P13640), the log2 fold change is inactive: -0.01.

MSH6 (UniProt P52701): the log2 fold change is inactive: 0.021.
